Drawing on patent US20200048328A1 (Bristol-Myers Squibb, published 2020), this text covers binding for six molecules.

The chains behind the UniProt entries cited, without tags or fusion partners. Where a name states a change or a piece, a line headed by the entry shows the natural chain unless it says otherwise. Residues count along the entry.
UniProt P02768: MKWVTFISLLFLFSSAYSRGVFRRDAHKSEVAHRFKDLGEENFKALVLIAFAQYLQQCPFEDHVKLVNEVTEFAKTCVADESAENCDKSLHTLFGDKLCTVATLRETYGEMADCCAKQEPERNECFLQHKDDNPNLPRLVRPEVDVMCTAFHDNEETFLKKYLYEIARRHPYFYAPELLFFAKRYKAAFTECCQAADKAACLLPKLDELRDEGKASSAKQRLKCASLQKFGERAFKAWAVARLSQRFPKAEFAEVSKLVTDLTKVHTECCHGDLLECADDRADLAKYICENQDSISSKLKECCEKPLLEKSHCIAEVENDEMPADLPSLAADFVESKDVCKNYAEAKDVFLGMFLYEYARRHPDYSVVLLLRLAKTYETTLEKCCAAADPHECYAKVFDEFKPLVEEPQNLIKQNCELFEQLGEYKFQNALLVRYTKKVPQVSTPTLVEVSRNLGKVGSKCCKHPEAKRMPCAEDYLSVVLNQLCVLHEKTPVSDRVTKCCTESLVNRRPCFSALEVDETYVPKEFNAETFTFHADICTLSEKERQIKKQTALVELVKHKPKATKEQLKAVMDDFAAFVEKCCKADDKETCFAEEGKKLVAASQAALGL
UniProt Q8NBP7, residues 31-692: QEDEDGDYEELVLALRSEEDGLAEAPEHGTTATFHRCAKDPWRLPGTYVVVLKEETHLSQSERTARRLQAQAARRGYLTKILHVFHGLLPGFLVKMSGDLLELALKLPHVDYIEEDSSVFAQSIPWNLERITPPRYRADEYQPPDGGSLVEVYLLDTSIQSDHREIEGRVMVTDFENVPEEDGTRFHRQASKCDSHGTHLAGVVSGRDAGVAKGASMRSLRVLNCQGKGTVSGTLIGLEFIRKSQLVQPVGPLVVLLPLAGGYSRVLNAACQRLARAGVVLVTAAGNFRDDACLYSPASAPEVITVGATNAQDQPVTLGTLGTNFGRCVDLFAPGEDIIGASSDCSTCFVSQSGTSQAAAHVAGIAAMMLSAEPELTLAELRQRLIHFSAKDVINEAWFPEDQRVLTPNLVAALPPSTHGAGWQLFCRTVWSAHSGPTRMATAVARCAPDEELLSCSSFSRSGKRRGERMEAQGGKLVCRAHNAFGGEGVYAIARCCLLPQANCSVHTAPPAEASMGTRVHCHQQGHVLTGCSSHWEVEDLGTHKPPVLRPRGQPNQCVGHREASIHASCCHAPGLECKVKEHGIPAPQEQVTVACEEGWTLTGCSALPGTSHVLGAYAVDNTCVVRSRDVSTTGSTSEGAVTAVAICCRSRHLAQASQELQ
UniProt P02770, residues 25-608: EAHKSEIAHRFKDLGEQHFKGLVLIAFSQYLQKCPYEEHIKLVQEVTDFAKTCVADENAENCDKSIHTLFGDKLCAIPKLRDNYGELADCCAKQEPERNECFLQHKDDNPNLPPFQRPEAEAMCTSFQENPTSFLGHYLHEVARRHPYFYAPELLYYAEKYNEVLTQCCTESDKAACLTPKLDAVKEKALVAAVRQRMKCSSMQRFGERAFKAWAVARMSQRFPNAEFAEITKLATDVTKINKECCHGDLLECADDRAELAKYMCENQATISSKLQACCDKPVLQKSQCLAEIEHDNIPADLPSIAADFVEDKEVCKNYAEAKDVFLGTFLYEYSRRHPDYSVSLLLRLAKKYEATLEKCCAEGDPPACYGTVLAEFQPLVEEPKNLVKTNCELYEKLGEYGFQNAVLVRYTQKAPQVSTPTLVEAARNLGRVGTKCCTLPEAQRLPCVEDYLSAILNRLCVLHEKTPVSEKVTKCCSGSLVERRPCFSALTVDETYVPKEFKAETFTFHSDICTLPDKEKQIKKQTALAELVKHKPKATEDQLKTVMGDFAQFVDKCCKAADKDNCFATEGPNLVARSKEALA
UniProt Q28522, residues 17-600: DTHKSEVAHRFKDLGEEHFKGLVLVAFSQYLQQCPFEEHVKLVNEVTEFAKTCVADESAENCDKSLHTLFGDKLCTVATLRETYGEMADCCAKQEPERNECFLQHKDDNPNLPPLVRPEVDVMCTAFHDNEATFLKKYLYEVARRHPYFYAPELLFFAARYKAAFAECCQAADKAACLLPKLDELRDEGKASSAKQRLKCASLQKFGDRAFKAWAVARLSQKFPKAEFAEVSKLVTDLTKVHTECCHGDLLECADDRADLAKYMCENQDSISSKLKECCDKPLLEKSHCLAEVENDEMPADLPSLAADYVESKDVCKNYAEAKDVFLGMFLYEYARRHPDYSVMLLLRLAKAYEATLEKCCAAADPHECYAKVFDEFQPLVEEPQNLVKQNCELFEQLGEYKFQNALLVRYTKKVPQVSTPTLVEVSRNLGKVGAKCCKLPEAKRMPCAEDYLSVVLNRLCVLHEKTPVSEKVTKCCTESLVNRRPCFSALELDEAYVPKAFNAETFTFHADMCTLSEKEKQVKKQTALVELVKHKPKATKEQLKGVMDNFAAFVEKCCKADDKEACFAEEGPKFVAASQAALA
UniProt P07724, residues 25-608: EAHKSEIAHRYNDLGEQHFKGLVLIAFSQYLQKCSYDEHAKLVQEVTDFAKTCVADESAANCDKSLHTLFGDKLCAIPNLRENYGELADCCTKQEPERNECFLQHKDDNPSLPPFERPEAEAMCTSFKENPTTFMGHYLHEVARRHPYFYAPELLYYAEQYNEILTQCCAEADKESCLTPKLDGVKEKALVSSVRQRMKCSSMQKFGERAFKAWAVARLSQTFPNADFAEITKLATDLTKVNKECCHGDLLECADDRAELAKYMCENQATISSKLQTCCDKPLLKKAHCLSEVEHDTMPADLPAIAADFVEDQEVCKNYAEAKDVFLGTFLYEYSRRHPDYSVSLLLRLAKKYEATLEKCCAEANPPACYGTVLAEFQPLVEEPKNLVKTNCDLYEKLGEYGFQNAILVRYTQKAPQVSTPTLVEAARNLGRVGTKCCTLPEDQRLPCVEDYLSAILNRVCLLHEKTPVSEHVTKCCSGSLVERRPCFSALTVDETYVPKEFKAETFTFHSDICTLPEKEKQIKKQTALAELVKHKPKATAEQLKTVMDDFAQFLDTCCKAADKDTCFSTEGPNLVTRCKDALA

These are yes or no findings as the source states them, for the method shown. Some entries that bind do so weakly or less than the wild type. For part of these data: Where a sequence is shown, tags or fusion partners need not be part of it.

In one assay the target is T1, domain III of HSA (human, UniProt P02768 405-609, limits assumed).
T1 construct: domain: III; also called HuSA domainIII
Put plainly: SPR on HSA domains.

Assay [1] has as its target T2, human PCSK9 (human, UniProt Q8NBP7 31-692).
T2 construct: also called hPCSK9; huPCSK9
Put plainly: SPR, dual injection on immobilized albumin. On the technique in general: Surface plasmon resonance follows binding to a sensor surface in real time, without labels.

Assay [2] deals with T2, human PCSK9. Nature of the assay: BLI (Octet). (In general: Biolayer interferometry detects binding as a change in optical thickness at a sensor tip.)
The target of assay [3] is T2, human PCSK9. Nature of the assay: PCSK9 FRET assays.
The target of assay [4] is T2, human PCSK9. Put plainly: SPR (Biacore), dual injection: human PCSK9 injected over tandem that is pre-bound to immobilized HSA; control trace with buffer instead of PCSK9.
The target in another assay is T3, human serum albumin (human, UniProt P02768 25-609).
T3 construct: immobilized on chips or coated on plates elsewhere; also called HSA; HuSA
Put plainly: SPR off-rate.

A further assay addresses T4, rat serum albumin (rat, UniProt P02770 25-608).
T4 construct: also called Rat SA; RSA
Nature of the assay: SPR off-rate.

Another assay has as its target T5, rhesus serum albumin (rhesus, UniProt Q28522 17-600).
T5 construct: also called RhSA; Rh-SA
Put plainly: SPR off-rate.

A further assay deals with T6, mouse serum albumin (mouse, UniProt P07724 25-608).
T6 construct: also called MSA; MuSA
Nature of the assay: SPR off-rate.

B1: PKE2 Adnectin 2270_C01 (designed binder)
chain: MASTSGVPRDLEVVAATPTSLLISWDAPAVTVRYYRITYGWQVQMYSDWGPLYIYKEFTVPGSKSTATISGLKPGVDYTITVYAVTGSGESPASSKPISINYRTEGDKPSQHHHHHH
notes: 10Fn3 domain with modified CD loop; the entry includes the His6 tail
Turning to B1, in the assay with domain III of HSA, the binding entry is reported as “binds”.

B2: PCSK9-PKE2 tandem Adnectin w/ his tag 4472_C06 (designed binder)
chain: MGVSDVPRDLEVVAATPTSLLISWDAPAEGYGYYRITYGETGGNSPVQEFTVPVSKGTATISGLKPGVDYTITVYAVEFDFPGAGYYHRPISINYRTEPSTPPTPSPSTPPTPSPSGVSDVPRDLEVVAATPTSLLISWDAPAVTVRYYRITYGREVQKYSDLGPLYIYQEFTVPGSKSTATISGLKPGVDYTITVYAVTGSGESPASSKPISINYRTEHHHHHH
notes: also called ATI-1574; ADX_4472_C06
Consider B2, for which the binding entry with human PCSK9 [1], with human PCSK9 [2], with human PCSK9 [3] and with human PCSK9 [4] was “binds” each time.

B3: PKE2 Adnectin 2629_E06 (designed binder)
chain: MGVSDVPRDLEVVAATPTSLLISWDAPAVTVRYYRITYGREVQKYSDLGPLYIYQEFTVPGSKSTATISGLKPGVDYTITVYAVTGSGESPASSKPISINYRTEIDKPSQHHHHHH
notes: 10Fn3 domain with modified CD loop; the entry includes the His6 tail; also called ADX_2629_E06
B3: the binding result with domain III of HSA was “binds”.

B4: PKE2 Adnectin 2630_D02 (designed binder)
chain: MGVSDVPRDLEVVAATPTSLLISWDAPAVTVRYYRITYGREVQKYSDWGPLYIYNEFTVPGSKSTATISGLKPGVDYTITVYAVTGSGESPASSKPISINYRTEIDKPSQHHHHHH
notes: as for B1
On to B4, for which, in the assay with domain III of HSA, the binding entry is on record as “binds”.

B5: 5963_A02.PS5-2 (designed binder)
chain: MGCSTSGVSDVPRDLEVVAATPTSLLISWDAPAVTVRYYRITYGREVQKYSDLGPLYIYQEFTVPGSKSTATISGLKPGVDYTITVYAVTGSGESPASSKPISINYRTPHHHHHH
B5: the binding entry in the assay with human serum albumin, in the assay with rat serum albumin, with rhesus serum albumin and with mouse serum albumin was “binds” each time.

B6: 5916_E03.PS5-2 (designed binder)
chain: MGVSDVPRDLEVVAATPTSLLISWDAPAVTVRYYRITYGREVQKYSDLGPLYIYQEFTVPGSKSTATISGLKPGVDYTITVYAVTGSGESPASSKPISINYRTPCHHHHHH
Take B6: the binding entry with human serum albumin, with rat serum albumin, in the assay with rhesus serum albumin and with mouse serum albumin was “binds” in each case.
